Reference: EP0005219A1, “Arylimidazoles, their synthesis and pharmaceutical or veterinary preparations containing them” (A/S Dumex (Dumex Ltd.), priority 1978, dated 1979)

Columns and labels:
[1] = system: mice; test: Writhing test in mice (acetic acid induced writhing), analgesic activity; format: in vivo; conditions: Mus musculus, po, 20 min, by gavage ½ hour prior to intraperitoneal acetic acid, writhing movements in 20 minutes
Experimental: Writhing test in mice. (SPF females of the strain NMRI/BOM, weighing 20-25 g). The test substance was administered by gavage ½ hour prior to an intraperitoneal injection of acetic acid. The number of writhing movements in 20 minutes was counted.

[2] = in vivo; conditions: mouse, po, mice, by gavage, observation period 168 hours, read-out: Acute toxicity LD50

COc1ccc2cc([C@H](C)C(=O)O)ccc2c1 [Compound 14, Naproxen, reference compound]
ED50 [1]: 33 mg/kg
LD50 at 168 h [2]: 1340 mg/kg
